# This is one part of the list.
# Assays:
# Experiment in all cases: glycan array binding signal (z-score within array); higher = stronger binding
# Details in all cases: glycan notation: IUPAC condensed, linker removed
# [1] = target: Fuc(a1-2)Gal(b1-4)[Fuc(a1-3)]GlcNAc
# How it was run: (§1)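 The binding signal is a Z-score computed within each array. Data were drawn from 3228 arrays in the Consortium for Functional Glycomics database, restricted to those with a known protein sequence. Scores were averaged over arrays of the same protein sequence at different concentrations or buffers, and over linkers, and negative values can be taken as non-binding.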
# [2] = target: Fuc(a1-2)Gal(b1-4)[Fuc(a1-3)]GlcNAc(b1-2)Man(a1-3)[Fuc(a1-2)Gal(b1-4)[Fuc(a1-3)]GlcNAc(b1-2)Man(a1-6)]Man(b1-4)GlcNAc(b1-4)GlcNAc
# How it was run: as §1
# [3] = target: Fuc(a1-2)Gal(b1-4)[Fuc(a1-3)]GlcNAc(b1-2)[Fuc(a1-2)Gal(b1-4)[Fuc(a1-3)]GlcNAc(b1-4)]Man(a1-3)[Fuc(a1-2)Gal(b1-4)[Fuc(a1-3)]GlcNAc(b1-2)Man(a1-6)]Man(b1-4)GlcNAc(b1-4)GlcNAc
# How it was run: as §1
# [4] = target: Fuc(a1-2)Gal(b1-4)[Fuc(a1-3)]GlcNAc(b1-3)Gal(b1-4)[Fuc(a1-3)]GlcNAc
# How it was run: as §1
# [5] = target: Fuc(a1-2)Gal(b1-4)[Fuc(a1-3)]GlcNAc(b1-3)Gal(b1-4)[Fuc(a1-3)]GlcNAc(b1-3)Gal(b1-4)[Fuc(a1-3)]GlcNAc
# How it was run: as §1
# [6] = target: Fuc(a1-2)Gal(b1-4)[Fuc(a1-3)]GlcNAc(b1-3)GalNAc
# How it was run: as §1
# Fuc(a1-2)Gal6S(b1-4)Glc = target: Fuc(a1-2)Gal6S(b1-4)Glc
# How it was run: as §1
# [7] = target: Fuc(a1-2)Gal6S(b1-4)Glc6S
# How it was run: as §1
# [8] = target: Fuc(a1-2)Gal6S(b1-4)GlcNAc
# How it was run: as §1
# Fuc(a1-2)[Gal(a1-3)]Gal = target: Fuc(a1-2)[Gal(a1-3)]Gal
# How it was run: as §1
# [9] = target: Fuc(a1-2)[Gal(a1-3)]Gal(b1-3)GalNAc
# How it was run: as §1
# [10] = target: Fuc(a1-2)[Gal(a1-3)]Gal(b1-3)GlcNAc
# How it was run: as §1
# [11] = target: Fuc(a1-2)[Gal(a1-3)]Gal(b1-3)GlcNAc(b1-2)Man(a1-3)[Fuc(a1-2)[Gal(a1-3)]Gal(b1-3)GlcNAc(b1-2)Man(a1-6)]Man(b1-4)GlcNAc(b1-4)GlcNAc
# How it was run: as §1
# [12] = target: Fuc(a1-2)[Gal(a1-3)]Gal(b1-3)GlcNAc(b1-2)Man(a1-3)[Fuc(a1-2)[Gal(a1-3)]Gal(b1-3)GlcNAc(b1-2)Man(a1-6)]Man(b1-4)GlcNAc(b1-4)[Fuc(a1-6)]GlcNAc
# How it was run: as §1
# [13] = target: Fuc(a1-2)[Gal(a1-3)]Gal(b1-3)GlcNAc(b1-3)GalNAc
# How it was run: as §1
# [14] = target: Fuc(a1-2)[Gal(a1-3)]Gal(b1-4)Glc
# How it was run: as §1
# [15] = target: Fuc(a1-2)[Gal(a1-3)]Gal(b1-4)GlcNAc
# How it was run: as §1
# [16] = target: Fuc(a1-2)[Gal(a1-3)]Gal(b1-4)GlcNAc(b1-2)Man(a1-3)[Fuc(a1-2)[Gal(a1-3)]Gal(b1-4)GlcNAc(b1-2)Man(a1-6)]Man(b1-4)GlcNAc(b1-4)GlcNAc
# How it was run: as §1
# [17] = target: Fuc(a1-2)[Gal(a1-3)]Gal(b1-4)GlcNAc(b1-2)Man(a1-3)[Fuc(a1-2)[Gal(a1-3)]Gal(b1-4)GlcNAc(b1-2)Man(a1-6)]Man(b1-4)GlcNAc(b1-4)[Fuc(a1-6)]GlcNAc
# How it was run: as §1
# [18] = target: Fuc(a1-2)[Gal(a1-3)]Gal(b1-4)GlcNAc(b1-3)GalNAc
# How it was run: as §1
# [19] = target: Fuc(a1-2)[Gal(a1-3)]Gal(b1-4)[Fuc(a1-3)]Glc
# How it was run: as §1
# [20] = target: Fuc(a1-2)[Gal(a1-3)]Gal(b1-4)[Fuc(a1-3)]GlcNAc
# How it was run: as §1
# [21] = target: Fuc(a1-2)[Gal(a1-3)]Gal(b1-4)[Fuc(a1-3)]GlcNAc(b1-3)GalNAc
# How it was run: as §1
# [22] = target: Fuc(a1-2)[Gal(a1-4)]Gal(b1-4)GlcNAc
# How it was run: as §1
# [23] = target: Fuc(a1-2)[GalNAc(a1-3)]Gal
# How it was run: as §1
# [24] = target: Fuc(a1-2)[GalNAc(a1-3)]Gal(b1-3)GalNAc(a1-3)[Fuc(a1-2)]Gal(b1-4)GlcNAc
# How it was run: as §1
# [25] = target: Fuc(a1-2)[GalNAc(a1-3)]Gal(b1-3)GlcNAc
# How it was run: as §1
# [26] = target: Fuc(a1-2)[GalNAc(a1-3)]Gal(b1-3)GlcNAc(b1-2)Man(a1-3)[Fuc(a1-2)[GalNAc(a1-3)]Gal(b1-3)GlcNAc(b1-2)Man(a1-6)]Man(b1-4)GlcNAc(b1-4)GlcNAc
# How it was run: as §1
# [27] = target: Fuc(a1-2)[GalNAc(a1-3)]Gal(b1-3)GlcNAc(b1-2)Man(a1-3)[Fuc(a1-2)[GalNAc(a1-3)]Gal(b1-3)GlcNAc(b1-2)Man(a1-6)]Man(b1-4)GlcNAc(b1-4)[Fuc(a1-6)]GlcNAc
# How it was run: as §1
# [28] = target: Fuc(a1-2)[GalNAc(a1-3)]Gal(b1-3)GlcNAc(b1-3)GalNAc
# How it was run: as §1
binder,measurement,setting,value
"Protectin (Homo sapiens), P13987 (protein) MGIQGGSVLFGLLLVLAVFCHSGHSLQCYNCPNPTADCKTAVNCSSDFDACLITKAGLQVYNKCWKFEHCNFNDVTTRLRENELTYYCCKKDLCNFNEQLENGGTSLSEKTVLLLVTPFLAAAWSLHP",glycan array binding signal (z-score),[1],-0.012
same,glycan array binding signal (z-score),[2],0.562
same,glycan array binding signal (z-score),[3],2.73
same,glycan array binding signal (z-score),[4],-0.347
same,glycan array binding signal (z-score),[5],-0.213
same,glycan array binding signal (z-score),[6],3.6
same,glycan array binding signal (z-score),Fuc(a1-2)Gal6S(b1-4)Glc,0.867
same,glycan array binding signal (z-score),[7],-0.108
same,glycan array binding signal (z-score),[8],-0.573
same,glycan array binding signal (z-score),Fuc(a1-2)[Gal(a1-3)]Gal,-0.623
same,glycan array binding signal (z-score),[9],0.783
same,glycan array binding signal (z-score),[10],-0.496
same,glycan array binding signal (z-score),[11],0.146
same,glycan array binding signal (z-score),[12],-0.311
same,glycan array binding signal (z-score),[13],0.172
same,glycan array binding signal (z-score),[14],-0.214
same,glycan array binding signal (z-score),[15],-0.536
same,glycan array binding signal (z-score),[16],0.763
same,glycan array binding signal (z-score),[17],-0.93
same,glycan array binding signal (z-score),[18],0.883
same,glycan array binding signal (z-score),[19],1.47
same,glycan array binding signal (z-score),[20],1.27
same,glycan array binding signal (z-score),[21],0.229
same,glycan array binding signal (z-score),[22],0.325
same,glycan array binding signal (z-score),[23],0.378
same,glycan array binding signal (z-score),[24],0.112
same,glycan array binding signal (z-score),[25],0.163
same,glycan array binding signal (z-score),[26],0.481
same,glycan array binding signal (z-score),[27],-0.237
same,glycan array binding signal (z-score),[28],0.722

# Shown bar-delimited: entries from further up
binder | measurement | setting | value
Protectin (Homo sapiens), P13987 (protein) MGIQGGSVLFGLLLVLAVFCHSGHSLQCYNCPNPTADCKTAVNCSSDFDACLITKAGLQVYNKCWKFEHCNFNDVTTRLRENELTYYCCKKDLCNFNEQLENGGTSLSEKTVLLLVTPFLAAAWSLHP | glycan array binding signal (z-score) | Fuc(a1-2)[Gal(a1-3)]Gal | -0.623
same | glycan array binding signal (z-score) | [9] | 0.783
